Values of other authors in patent publication US20150139936A1, “DOSAGE AND ADMINISTRATION OF BISPECIFIC SCFV CONJUGATES IN COMBINATION WITH ANTI-CANCER THERAPEUTICS” (Merrimack Pharmaceuticals, Inc., priority 2012, published 2015).

Conditions: cited from earlier work

For `CC(=O)O[C@H]1C(=O)[C@@]2(C)[C@H]([C@H](OC(=O)c3ccccc3)[C@]3(O)C[C@H](OC(=O)[C@H](O)[C@@H](NC(=O)c4ccccc4)c4ccccc4)C(C)=C1C3(C)C)[C@]1(OC(C)=O)CO[C@@H]1C[C@@H]2O` [paclitaxel], the water solubility is listed as “insoluble in water”.
